Assays:
rat stomach = settings: 300 mg/kg/day orally, end of 11/2 days
[1] = some subjects, doses not greatly in excess of therapeutic dose; cited from earlier work

In the case of `COc1ccc2cc(C(C)C(=O)O)ccc2c1` (centres unmarked) [compound of formula (I)], the gastric irritation (rat stomach) is listed as “very severe gastric irritation” and the “irritation of the gastro-intestinal tract” value [1] is listed as “can cause severe irritation of the gastro-intestinal tract”.
